{"source": "PubChem BioAssay AID1671195, Yale University | 2021", "screen": "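Genes whose knockdown alters LDL uptake in liver cancer cells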 (primary screen)", "cells": "human Huh7 hepatoma cells", "knock-down reagent": "siRNA pool against human genes, 18 nM", "timing": "about 2 to 2.5 days of knockdown, then 8 h LDL uptake", "treatment": "DiI-labelled LDL at 30 µg/ml for 8 h, in lipoprotein-deficient serum medium", "read-out": "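Fluorescent LDL signal imaged in cells, scaled to the plate median, robust z-score for each replicate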", "direction": "robust z-score: higher = more LDL uptake after knockdown", "rule for the call": "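Active when two or more replicates show a robust z-score above 2 or below -2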", "note": "In all, the deposit lists about 22,000 reagents; below is an unselected part. About 1,510 of all reagents (6.9%) were called active. 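Active includes knockdowns raising or lowering LDL uptake; positive z-scores mean more uptake, negative mean less.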 Reagent sequences are not shown."}
{"Gene": "PTH1R", "robust z-score, replicate 1": -0.932, "robust z-score, replicate 2": -1.31, "robust z-score, replicate 3": -0.69, "activity call": "inactive"}
{"Gene": "SH3GL2", "robust z-score, replicate 1": 1.59, "robust z-score, replicate 2": -0.213, "robust z-score, replicate 3": 0.276, "activity call": "inactive"}
{"Gene": "PARPBP", "robust z-score, replicate 1": 0.00389, "robust z-score, replicate 2": 1.76, "robust z-score, replicate 3": 0.652, "activity call": "inactive"}
{"Gene": "SP3", "robust z-score, replicate 1": -0.189, "robust z-score, replicate 2": -0.552, "robust z-score, replicate 3": -0.918, "activity call": "inactive"}
{"Gene": "KMO", "robust z-score, replicate 1": -0.501, "robust z-score, replicate 2": -0.683, "robust z-score, replicate 3": -0.541, "activity call": "inactive"}
{"Gene": "NCCRP1", "robust z-score, replicate 1": -0.836, "robust z-score, replicate 2": -0.984, "robust z-score, replicate 3": -0.799, "activity call": "inactive"}
{"Gene": "MIAT", "robust z-score, replicate 1": -0.621, "robust z-score, replicate 2": -0.681, "robust z-score, replicate 3": -0.564, "activity call": "inactive"}
{"Gene": "SLC25A24", "robust z-score, replicate 1": 1.03, "robust z-score, replicate 2": 1.21, "robust z-score, replicate 3": 1.35, "activity call": "inactive"}
{"Gene": "SNX33", "robust z-score, replicate 1": -1.14, "robust z-score, replicate 2": -0.952, "robust z-score, replicate 3": -1.27, "activity call": "inactive"}
{"Gene": "MYLK", "robust z-score, replicate 1": 0.41, "robust z-score, replicate 2": -0.33, "robust z-score, replicate 3": -0.018, "activity call": "inactive"}
{"Gene": "RPL4P5", "robust z-score, replicate 1": -0.358, "robust z-score, replicate 2": -0.509, "robust z-score, replicate 3": -0.591, "activity call": "inactive"}
{"Gene": "RSPH9", "robust z-score, replicate 1": 1.05, "robust z-score, replicate 2": 0.821, "robust z-score, replicate 3": 0.955, "activity call": "inactive"}

In a second layout: 2 of the entries above.
Gene,"robust z-score, replicate 1","robust z-score, replicate 2","robust z-score, replicate 3",activity call
PARPBP,0.00389,1.76,0.652,inactive
SP3,-0.189,-0.552,-0.918,inactive
